Structures can show the parent of a compound that is named as a salt. This is one part of the list. Plates or batches differ in their baseline, so values are only roughly comparable.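 The strain is a K-12 laboratory model grown without shaking in 96-well plates, and biofilm is the crystal violet stain retained on the wells, read as absorbance. Drugs were picked as candidate specific biofilm blockers when they cut staining strongly but slowed free-floating growth by less than 70%.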

The test deals with Escherichia coli W3110. The experiment in a line: biofilm formation (crystal violet staining) relative to untreated control; higher = more biofilm. The following applies: 10 µM; 20-24 h; 30 °C; TB.
Molecule `Cc1c(F)c(N2CCNC(C)C2)cc2c1c(=O)c(C(=O)O)cn2C1CC1` (centres undefined) [Grepafloxacin] returned a biofilm formation of 3%.

In turn, `CNCC[C@@H](Oc1ccccc1C)c1ccccc1` [Tomoxetine hydrochloride] had a biofilm formation of 102%. In the case of `O=C(CCCCC(=O)Nc1c(I)cc(I)c(C(=O)O)c1I)Nc1c(I)cc(I)c(C(=O)O)c1I` [Iodipamide] it was 63%; in that of `O=C(O)Cc1cc(I)c(Oc2ccc(O)c(I)c2)c(I)c1` [Tiratricol, 3,3',5-triiodothyroacetic acid], 74%; in that of `COCCCOc1ccnc(C[S+]([O-])c2nc3ccccc3[nH]2)c1C` (centres undefined) [Rabeprazole Sodium salt], 90%. In the case of `CCCc1nc2c(C)cc(-c3nc4ccccc4n3C)cc2n1Cc1ccc(-c2ccccc2C(=O)O)cc1` [Telmisartan] it was 66%; in that of `COCCCOc1cc(C[C@@H](C[C@H](N)[C@@H](O)C[C@H](C(=O)NCC(C)(C)C(N)=O)C(C)C)C(C)C)ccc1OC` [Aliskiren hemifumarate], 50%; in that of `CCCCOC(=O)c1ccc(O)cc1` [Butylparaben], 48%.

As to `CC(=O)/N=c1/sc(S(N)(=O)=O)nn1C` [Methazolamide], the biofilm formation was found to be 75%.

In turn, `N=C(N)N1CCc2ccccc2C1` [Debrisoquin sulfate] gave a biofilm formation of 65%. As for `CCCCC1C(=O)N(c2ccccc2)N(c2ccccc2)C1=O` [Phenylbutazone], the figure is 93%.

Take `CCN(CC)C(=O)Nc1ccc(OCC(O)CNC(C)(C)C)c(C(C)=O)c1` (centres undefined) [Celiprolol hydrochloride]: the biofilm formation worked out at 81%. As for `N[C@H]1CONC1=O` [(S)-(-)-Cycloserine], the figure is 59%; as for `CCCCC1C(=O)N(c2ccccc2)N(c2ccc(O)cc2)C1=O` (centres undefined) [Oxyphenbutazone], 72%; as for `COc1cc2nc(N3CCN(C(=O)C4COc5ccccc5O4)CC3)nc(N)c2cc1OC` (centres undefined) [Doxazosin mesylate], 67%.

On to `CCN(CC)C(=O)C1(c2ccccc2)CC1CN` (centres undefined) [Milnacipran hydrochloride], for which the biofilm formation was 99%. `Cc1cc(C(C)(C)C)cc(C)c1CC1=NCCN1` [Xylometazoline hydrochloride]: the biofilm formation is 74%. In the case of `CCN(CCCCOC(=O)c1ccc(OC)c(OC)c1)C(C)Cc1ccc(OC)cc1` (centres undefined) [Mebeverine hydrochloride] it was 70%; in that of `O=P(O)(O)C(O)(Cn1ccnc1)P(=O)(O)O` [Zoledronic acid hydrate], 50%. In the case of `CCN(CC)CCOCCOC(=O)C1(c2ccccc2)CCCC1` [Carbetapentane citrate] it was 93%; in that of `NC[C@H]1O[C@H](O[C@H]2[C@H](O)[C@@H](O[C@H]3O[C@H](CO)[C@@H](O)[C@H](N)[C@H]3O)[C@H](N)C[C@@H]2N)[C@H](N)C[C@@H]1O` [Tobramycin], 18%; in that of `C=CCOc1ccccc1OCC(O)CNC(C)C` (centres undefined) [Oxprenolol hydrochloride], 68%.

The molecule `Cc1c(N)c(=O)n(-c2ccccc2)n1C` [Ampyrone] gave a biofilm formation of 83%. In the case of `CCOC(=O)/C=C(C)/C=C/C=C(C)/C=C/c1c(C)cc(OC)c(C)c1C` [Etretinate] it was 91%; in that of `CC(C)[C@H](N)C(=O)OCCOCn1cnc2c(=O)nc(N)[nH]c21` [Valacyclovir hydrochloride], 81%; in that of `CN1CCN2c3ncccc3Cc3ccccc3C2C1` (centres undefined) [Mirtazapine], 96%.

In the case of `COC(=O)N/N=C/c1c[n+]([O-])c2ccccc2[n+]1[O-]` [Carbadox], the biofilm formation was found to be 76%. As for `CN(C(=O)CN(CCO)CC(=O)N(C)C(C)(C)Cc1ccccc1)C(C)(C)Cc1ccccc1` [Oxethazaine], the figure is 80%; as for `Cc1cc(C)nc(NS(=O)(=O)c2ccc(N)cc2)n1` [Sulfamethazine sodium salt], 37%; as for `CC1(C)O[C@@H]2C[C@H]3[C@@H]4C[C@H](F)C5=CC(=O)C=C[C@]5(C)[C@@]4(F)[C@@H](O)C[C@]3(C)[C@]2(C(=O)CO)O1` [Fluocinolone acetonide], 82%. In the case of `COc1cc(NS(=O)(=O)c2ccc(N)cc2)ncn1` [Sulfamonomethoxine] it was 29%; in that of `CC(C(O)c1ccc(O)cc1)N1CCC(Cc2ccccc2)CC1` (centres undefined) [Ifenprodil tartrate], 80%. In the case of `COc1ccc(Cl)cc1C(=O)NCCc1ccc(S(=O)(=O)NC(=O)NC2CCCCC2)cc1` [Glibenclamide] it was 62%; in that of `Nc1nc(=O)n([C@@H]2CS[C@H](CO)O2)cc1F` [(-)-Emtricitabine], 80%; in that of `CC#C[C@]1(O)CC[C@H]2[C@@H]3CCC4=CC(=O)CCC4=C3[C@@H](c3ccc(N(C)C)cc3)C[C@@]21C` [Mifepristone], 51%. `CCCOc1ccccc1-c1nc2[nH]nnc2c(=O)[nH]1` [Zaprinast] returned a biofilm formation of 50%.

`CCCCCCNC(=O)n1cc(F)c(=O)[nH]c1=O` [Carmofur] gave a biofilm formation of 76%.

Regarding `Clc1ccc2nsnc2c1NC1=NCCN1` [Tizanidine hydrochloride], the biofilm formation came out at 77%.

The molecule `CC(C)Oc1ccc2c(=O)c(-c3ccccc3)coc2c1` [Ipriflavone] yielded a biofilm formation of 109%.

In turn, `Cc1cc2cc3c(C)cc(=O)oc3c(C)c2o1` [Trioxsalen] gave a biofilm formation of 81%. On to `CC(=O)Nc1nnc(S(N)(=O)=O)s1` [Acetazolamide], for which the biofilm formation is 81%. As for `CCCCOc1cc(C(=O)OCCN(CC)CC)ccc1N` [Benoxinate hydrochloride], the figure is 68%; as for `C[C@]12CC[C@@H]3c4ccc(O)cc4C[C@@H](CCCCCCCCC[S+]([O-])CCCC(F)(F)C(F)(F)F)[C@H]3[C@@H]1CC[C@@H]2O` (some centres undefined) [Fulvestrant], 69%; as for `CO/N=C(\C(=O)N[C@@H]1C(=O)N2C(C(=O)O)=C(COC(C)=O)CS[C@H]12)c1csc(N)n1` [Cefotaxime sodium salt], 8%. In the case of `CC(CNC1CCCCC1)OC(=O)c1ccccc1` (centres undefined) [Hexylcaine hydrochloride] it was 68%; in that of `Nc1ccc(S(=O)(=O)Nc2nccs2)cc1` [Sulfathiazole], 29%; in that of `Cc1ccc(-c2cc(C(F)(F)F)nn2-c2ccc(S(N)(=O)=O)cc2)cc1` [Celecoxib], 65%.

`C[C@@H]1CCC[C@H](C)N1NC(=O)c1ccc(Cl)c(S(N)(=O)=O)c1` [Clopamide]: the biofilm formation was 59%. As for `CC[C@H]1OC(=O)[C@H](C)[C@@H](O[C@H]2C[C@@](C)(OC)[C@@H](O)[C@H](C)O2)[C@H](C)[C@@H](O[C@@H]2O[C@H](C)C[C@H](N(C)C)[C@H]2O)[C@](C)(O)C[C@@H](C)CN(C)[C@H](C)[C@@H](O)[C@]1(C)O` [Azithromycin], the figure is 34%.
